Experimental data taken from article PMC10003074.
Results are given in words; binding and its absence hold for the method and conditions named. In cells and extracts the contact can be indirect. Some results given as binding are weak or reduced against the parent protein; the word gives no strength.

B1: SLAM-associated protein (SAP) (protein, UniProt O88890 1-126)
chain: MDAVTVYHGKISRETGEKLLLATGLDGSYLLRDSESVPGVYCLCVLYQGYIYTYRVSQTETGSWSAETAPGVHKRFFRKVKNLISAFQKPDQGIVTPLQYPVEKSSGRGPQAPTGRRDSDICLNAP
B2: SLAM-associated protein (SAP), endogenous in murine thymocytes (protein, UniProt O88890 1-126)
chain: B1 chain

Key:
[1] = molecular target: T1, Ly108-2 (SLAMF6 isoform), from pervanadate-treated BI-141 cells (mouse) (UniProt Q9ET39); test: co-IP; BI-141 T-cell hybridoma expressing SAP and individual Ly108 isoforms; cells treated with pervanadate before lysis in Brij 98; Ly108 precipitated with anti-Ly108 13G3-19D and protein-G agarose, blot with anti-SAP; in a separate experiment the precipitates were deglycosylated with PNGaseF
T1 sequence (chain, tyrosine phosphorylation after pervanadate treatment; sites not mapped): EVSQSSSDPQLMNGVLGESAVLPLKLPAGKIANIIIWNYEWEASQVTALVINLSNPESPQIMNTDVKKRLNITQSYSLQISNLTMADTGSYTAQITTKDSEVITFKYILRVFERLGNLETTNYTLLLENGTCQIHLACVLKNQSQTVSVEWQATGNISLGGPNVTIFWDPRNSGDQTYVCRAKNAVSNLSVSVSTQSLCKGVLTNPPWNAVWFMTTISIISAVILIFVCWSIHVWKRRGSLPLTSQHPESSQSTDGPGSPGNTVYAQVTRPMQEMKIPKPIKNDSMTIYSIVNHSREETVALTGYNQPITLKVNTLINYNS

[2] = molecular target: T2, Ly108-H1 in thymocytes from transgenic mice (mouse) (UniProt Q9ET39); test: co-IP; thymocytes from transgenic mice; details only in Supplementary Figure S2 (not shown)
T2 sequence: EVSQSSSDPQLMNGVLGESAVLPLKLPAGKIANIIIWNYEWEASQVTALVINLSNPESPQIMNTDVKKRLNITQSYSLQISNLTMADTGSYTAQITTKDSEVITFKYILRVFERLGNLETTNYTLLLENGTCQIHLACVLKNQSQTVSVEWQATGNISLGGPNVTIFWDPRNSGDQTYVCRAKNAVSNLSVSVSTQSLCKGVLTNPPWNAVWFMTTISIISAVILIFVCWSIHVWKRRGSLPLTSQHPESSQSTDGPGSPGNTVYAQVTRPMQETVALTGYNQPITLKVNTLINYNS

Row | Binder | binding [1] | binding [2]
1 | B1 | binds | 
2 | B2 |  | binds
